In assay [1] the target is T1, CUL5(NEDD8) (human, UniProt Q93034 1-780; Q15843 1-76, NEDD8 attached at K724).
T1 construct: cullin 5, human; NEDD8, human, conjugated to CUL5; Always present together with RBX2 and ELOB/C in the experiments; written alone for the pairs inside the complexes; The His tag on CUL5 served the Ni-NTA step before TEV cleavage; also called neddylated CUL5; source: E. coli BL21, coexpressed with RBX2 and ELOB/C, neddylated in mixed lysates, purified (Ni-NTA, SEC); not shown: His6, N-terminal, …
Kind of assay: co-purification (Ni-NTA, then SEC); coexpression in E. coli BL21 and mixing of lysates; His tags on ASB9 and CUL5; composition checked by SEC, SDS-PAGE and LC MS/MS. On the technique in general: Size exclusion chromatography separates by hydrodynamic size, large species first.

By UniProt entry, the sequences of proteins in these tests, tags left out. Where a name states a change or a piece, a line headed by the entry shows the natural chain unless it says otherwise.
UniProt Q93034: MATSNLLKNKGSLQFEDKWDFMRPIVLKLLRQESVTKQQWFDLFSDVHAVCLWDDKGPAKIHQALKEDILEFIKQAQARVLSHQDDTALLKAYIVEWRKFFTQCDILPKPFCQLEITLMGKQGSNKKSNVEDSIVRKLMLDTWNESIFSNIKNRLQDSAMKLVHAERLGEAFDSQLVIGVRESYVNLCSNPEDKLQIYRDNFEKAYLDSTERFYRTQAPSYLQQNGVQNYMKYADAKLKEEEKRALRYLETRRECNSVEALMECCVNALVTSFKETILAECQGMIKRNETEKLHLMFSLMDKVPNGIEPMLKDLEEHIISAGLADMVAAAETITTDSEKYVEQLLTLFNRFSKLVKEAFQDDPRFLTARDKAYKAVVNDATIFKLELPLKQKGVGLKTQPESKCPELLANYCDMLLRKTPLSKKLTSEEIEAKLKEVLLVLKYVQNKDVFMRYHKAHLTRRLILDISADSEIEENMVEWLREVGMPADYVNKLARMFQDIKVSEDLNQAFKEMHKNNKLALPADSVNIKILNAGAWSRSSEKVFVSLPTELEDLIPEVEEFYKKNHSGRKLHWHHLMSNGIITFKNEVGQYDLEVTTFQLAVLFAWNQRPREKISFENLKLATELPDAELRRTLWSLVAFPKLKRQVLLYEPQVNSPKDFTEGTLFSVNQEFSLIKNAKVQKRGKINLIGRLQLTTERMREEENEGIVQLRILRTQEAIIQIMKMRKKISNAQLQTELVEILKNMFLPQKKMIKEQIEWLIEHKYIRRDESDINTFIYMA
UniProt Q9WTZ1: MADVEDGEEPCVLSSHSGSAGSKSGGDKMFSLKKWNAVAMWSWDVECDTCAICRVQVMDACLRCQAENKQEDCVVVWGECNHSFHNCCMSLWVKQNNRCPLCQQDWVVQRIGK

The target of assay [2] is ankyrin repeat and SOCS box protein 9 (ASB9) (human) (UniProt Q96DX5). The assay is described as above.

Results are given in words; binding and its absence hold for the method and conditions named. Some binding calls cover weakened binding; strength is not graded here.

Consider “ring box protein 2 (RBX2) (from UniProt Q9WTZ1 1-113)”, for which the binding entry in assay [1] and in assay [2] was “binds” in each case.

Values taken from publication PMC7950132 (Molecular & Cellular Proteomics : MCP, 2021).
